Reference: doi:10.1101/2025.07.16.665076
No constants are given. Whether binding was seen depends on the method and setting. Binding seen in cells or lysates may run through a third protein. Here binding means that the protein was enriched with, or labelled near, the bait; the list need not be complete. Sequences can lack the tags named with a protein.

T1: His-ALFA-SAA1-N terminus (SAA1-N) (human) (UniProt P0DJI8)
T1 sequence: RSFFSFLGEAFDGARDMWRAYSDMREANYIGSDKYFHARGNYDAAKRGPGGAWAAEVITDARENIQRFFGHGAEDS


Target: T1, His-ALFA-SAA1-N terminus (SAA1-N) (human)
Assay: affinity purification with mass spectrometry

Row | Binder | binding
1 | GPLD1 (bovine plasma) (enzyme, UniProt P80109 24-839) CGISTHIEIGHRALEFLHLQDGSINYKELLLRHQDAYQAGSVFPDSFYPSICERGQFHDVSESTHWTPFLNASVHYIRKNYPLPWDEDTEKLVAFLFGITSHMVADVNWHSLGIEQGFLRTMAAIDFHNSYPEAHPAGDFGGDVLSQFEFKFNYLSRHWYVPAEDLLGIYRELYGRIVITKKAIVDCSYLQFLEMYAEMLAISKLYPTYSVKSPFLVEQFQEYFLGGLEDMAFWSTNIYHLTSYMLKNGTSNCNLPENPLFITCGGQQNNTHGSKVQKNGFHKNVTAALTKNIGKHINYTKRGVFFSVDSWTMDSLSFMYKSLERSIREMFIGSSQPLTHVSSPAASYYLSFPYTRLGWAMTSADLNQDGYGDLVVGAPGYSHPGRIHVGRVYLIYGNDLGLPRIDLDLDKEAHGILEGFQPSGRFGSAVAVLDFNVDGVPDLAVGAPSVGSEKLTYTGAVYVYFGSKQGQLSSSPNVTISCQDTYCNLGWTLLAADVNGDSEPDLVIGSPFAPGGGKQKGIVAAFYSGSSYSSREKLNVEAANWMVKGEEDFAWLGYSLHGVNVNNRTLLLAGSPTWKDTSSQGHLFRTRDEKQSPGRVYGYFPPICQSWFTISGDKAMGKLGTSLSSGHVMVNGTRTQVLLVGAPTQDVVSKVSFLTMTLHQGGSTRMYELTPDSQPSLLSTFSGNRRFSRFGGVLHLSDLDNDGLDEIIVAAPLRITDATAGLMGEEDGRVYVFNGKQITVGDVTGKCKSWVTPCPEEKAQYVLISPEAGSRFGSSVITVRSKEKNQVIIAAGRSSLGARLSGVLHIYRLGQD | binds
2 | APOD (bovine plasma) (protein, UniProt Q32KY0 21-189) QAFHLGKCPHPPVQENFDVNKYLGKWYEIEKIPVSFEKGSCIQANYSLKENGNVEVINKELRADGTVNQIEGEATPENITEPAKLAVKFFWFMPSAPYWVLATDYENYALVYSCTTIIWLFHMDHVWILGRNPYLPPETVTYLKDILTSNNIEVEKMTITDQVNCPESM | binds
3 | SERPINF2 (bovine plasma) (protein, UniProt P28800 41-492) AQQKLPPLSLLKLDNQEPGGQIAPKKAPEDCKLSPTPEQTRRLARAMMTFTTDLFSLVAQSSTRPNLILSPLSVALALSHLALGAQNQTLQRLKEVLHADSGPCLPHLLSRLCQDLGPGAFRLAARMYLQKGFPIKEDFLEQSEQLFGAKPMSLTGMKGEDLANINRWVKEATEGKIEDFLSDLPDDTVLLLLNAIHFQGFWRSKFDPNLTQRGAFHLDEQFTVPVDMMQALTYPLHWFLLEQPEIQVAHFPFKNNMSFVVLMPTRFEWNASQVLANLTWDILHQPSLSERPTKVQLPKLHLKYQLDLVATLSQLGLQELFQAPDLRGISDERLVVSSVQHQSALELSEAGVQAAAATSTAMSRMSLSSFIVNRPFLFFILEDSTSLPLFVGSVRNPNPGAQPERKEQQDSPDGKDSFQDHKGLPRGDKPFDPDLKLGPPSEEDYAQPSSPK | binds
4 | SPP2 (bovine plasma) (protein, UniProt Q27967 24-203) FPVYDYDPASLKEALSASVAKVNSQSLSPYLFRAFRSSVKRVNALDEDSLTMDLEFRIQETTCRRESEADPATCDFQRGYHVPVAVCRSTVRMSAEQVQNVWVRCHWSSSSGSSSSEEMFFGDILGSSTSRNSYLLGLTPDRSRGEPLYEPSREMRRNFPLGNRRYSNPWPRARVNPGFE | binds
5 | apolipoprotein E (bovine plasma) (protein, UniProt Q03247 19-316) DMEGELGPEEPLTTQQPRGKDSQPWEQALGRFWDYLRWVQTLSDQVQEELLNTQVIQELTALMEETMKEVKAYKEELEGQLGPMAQETQARVSKELQAAQARLGSDMEDLRNRLAQYRSEVQAMLGQSTEELRARMASHLRKLPKRLLRDADDLKKRLAVYQAGASEGAERSLSAIRERFGPLVEQGQSRAATLSTLAGQPLLERAEAWRQKLHGRLEEVGVRAQDRLDKIRQQLEEVHAKVEEQGNQMRLQAEAFQARLRSWFEPLVEDMQRQWAGLVEKVQLALRPSPTSPPSENH | binds
6 | PLA2G7 (bovine plasma) (protein, UniProt Q28017 22-444) FDWQDLNPVAYIESPAWVSKIQALMAAANIGQSKIPRGNGSYSVGCTDLMFDYTNKGTFLRLYYPSQDDDHSDTLWIPNKEYFLGLSKFLGTHWLVGKIMGLFFGSMTTPAAWNAHLRTGEKYPLIIFSHGLGAFRTIYSAIGIDLASHGFIVAAVEHRDGSASSTYYFKDQSAVEIGNKSWLYLRTLKRGEEEFPLRNEQLRQRAKECSQALSLILDIDHGRPVTNVLDLEFDVEQLKDSIDRDKIAIIGHSFGGATVIQTLSEDQRFRCGIALDAWMFPVGDEVYSRIPQPLFFINSERFQYPSNIIRMKKCFLPDRERKMITIRGSVHQNFVDFTFATSKIIGYLFTLKGDIDSNVAISLSNKASLAFLQKHLGLQKDFDQWDSLVEGEDHNLIPGTNINTTNHQAILQNSTGIERPNLD | binds
